No constants are given. Whether binding was seen depends on the method and setting. In cells and extracts the contact can be indirect. Some binding calls cover weakened binding; strength is not graded here. One block for each binder: values may come before it.
Tests used:
[1] = substrate: CIC wild type (Supplementary Figure 5J) (human) (UniProt Q96RK0); assay: co-IP; Supplementary Figure 5J; legend not shown; immunoprecipitation from cell lysates is the only protein binding method told in the methods
[2] = molecular target: endogenously HA-tagged CIC in HEK293 cells (CRISPR/Cas9 knock-in) (human (endogenous in HEK293)) (UniProt Q96RK0); assay: co-IP; HEK293 cells with endogenously HA-tagged CIC (CRISPR/Cas9), IP with anti-HA antibody; EBC lysis buffer, NETN washes
[3] = molecular target: GFP-CIC(S173A) (UniProt Q96RK0); assay: co-IP; HEK293 cells transfected with indicated plasmids, IP with anti-GFP antibody; EBC lysis buffer, NETN washes
[4] = molecular target: GFP-CIC (wild type) (UniProt Q96RK0); assay: as above
[5] = molecular target: endogenous CIC in normal human astrocytes (NHA) (human (endogenous in NHA)) (UniProt Q96RK0); assay: co-IP; NHA cells after EGF treatment, lysed in EBC buffer (50 mM Tris pH 8, 120 mM NaCl, 0.5% NP-40), IP with anti-CIC antibody, washed in NETN buffer; endogenous proteins

By UniProt entry, the sequences of proteins in these tests, tags left out. Where a name states a change or a piece, a line headed by the entry shows the natural chain unless it says otherwise. Chains listed by the source or under a name are the forms on record and can include a tag or linker.
endogenous CIC in normal human astrocytes (NHA) (human (endogenous in NHA)) (Q96RK0, form named): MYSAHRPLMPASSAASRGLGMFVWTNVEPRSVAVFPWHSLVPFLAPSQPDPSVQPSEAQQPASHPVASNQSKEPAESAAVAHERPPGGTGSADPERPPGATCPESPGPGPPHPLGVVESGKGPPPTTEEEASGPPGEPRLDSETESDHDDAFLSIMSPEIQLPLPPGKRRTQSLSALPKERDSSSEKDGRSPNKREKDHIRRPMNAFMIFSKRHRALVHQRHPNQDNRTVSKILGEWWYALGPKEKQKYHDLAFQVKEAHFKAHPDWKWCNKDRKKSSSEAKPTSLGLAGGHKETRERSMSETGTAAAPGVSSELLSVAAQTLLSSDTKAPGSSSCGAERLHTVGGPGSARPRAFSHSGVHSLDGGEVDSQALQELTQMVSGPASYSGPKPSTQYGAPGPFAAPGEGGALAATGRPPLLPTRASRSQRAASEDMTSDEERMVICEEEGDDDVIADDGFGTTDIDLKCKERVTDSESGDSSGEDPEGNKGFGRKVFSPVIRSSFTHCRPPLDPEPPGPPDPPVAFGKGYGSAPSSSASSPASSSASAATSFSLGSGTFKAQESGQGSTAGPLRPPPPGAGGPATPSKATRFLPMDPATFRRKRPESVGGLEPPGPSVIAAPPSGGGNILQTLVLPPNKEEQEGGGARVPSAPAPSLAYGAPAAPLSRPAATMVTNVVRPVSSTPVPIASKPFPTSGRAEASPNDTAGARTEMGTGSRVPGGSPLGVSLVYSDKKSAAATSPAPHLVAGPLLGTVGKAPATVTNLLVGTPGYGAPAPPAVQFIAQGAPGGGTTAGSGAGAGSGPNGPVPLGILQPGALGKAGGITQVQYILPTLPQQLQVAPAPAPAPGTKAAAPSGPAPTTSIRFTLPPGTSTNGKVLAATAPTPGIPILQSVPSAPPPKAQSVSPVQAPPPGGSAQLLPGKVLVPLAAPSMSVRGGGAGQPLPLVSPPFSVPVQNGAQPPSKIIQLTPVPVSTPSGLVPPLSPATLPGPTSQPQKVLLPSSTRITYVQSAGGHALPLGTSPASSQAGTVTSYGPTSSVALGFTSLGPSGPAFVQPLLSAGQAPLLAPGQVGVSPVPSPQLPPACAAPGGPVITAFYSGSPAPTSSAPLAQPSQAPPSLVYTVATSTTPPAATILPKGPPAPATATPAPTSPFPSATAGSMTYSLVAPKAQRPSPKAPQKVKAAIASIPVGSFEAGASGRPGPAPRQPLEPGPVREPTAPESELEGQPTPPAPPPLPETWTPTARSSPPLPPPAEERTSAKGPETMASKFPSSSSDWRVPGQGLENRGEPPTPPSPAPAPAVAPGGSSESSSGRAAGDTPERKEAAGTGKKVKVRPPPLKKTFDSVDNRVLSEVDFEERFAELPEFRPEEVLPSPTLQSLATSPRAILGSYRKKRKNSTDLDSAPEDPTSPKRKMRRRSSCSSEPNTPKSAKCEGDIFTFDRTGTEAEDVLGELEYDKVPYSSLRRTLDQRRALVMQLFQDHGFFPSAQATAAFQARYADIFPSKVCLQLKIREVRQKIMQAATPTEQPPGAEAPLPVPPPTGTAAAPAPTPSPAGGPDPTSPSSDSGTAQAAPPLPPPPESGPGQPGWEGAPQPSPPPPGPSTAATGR
GFP-CIC(S173A) (Q96RK0, form named): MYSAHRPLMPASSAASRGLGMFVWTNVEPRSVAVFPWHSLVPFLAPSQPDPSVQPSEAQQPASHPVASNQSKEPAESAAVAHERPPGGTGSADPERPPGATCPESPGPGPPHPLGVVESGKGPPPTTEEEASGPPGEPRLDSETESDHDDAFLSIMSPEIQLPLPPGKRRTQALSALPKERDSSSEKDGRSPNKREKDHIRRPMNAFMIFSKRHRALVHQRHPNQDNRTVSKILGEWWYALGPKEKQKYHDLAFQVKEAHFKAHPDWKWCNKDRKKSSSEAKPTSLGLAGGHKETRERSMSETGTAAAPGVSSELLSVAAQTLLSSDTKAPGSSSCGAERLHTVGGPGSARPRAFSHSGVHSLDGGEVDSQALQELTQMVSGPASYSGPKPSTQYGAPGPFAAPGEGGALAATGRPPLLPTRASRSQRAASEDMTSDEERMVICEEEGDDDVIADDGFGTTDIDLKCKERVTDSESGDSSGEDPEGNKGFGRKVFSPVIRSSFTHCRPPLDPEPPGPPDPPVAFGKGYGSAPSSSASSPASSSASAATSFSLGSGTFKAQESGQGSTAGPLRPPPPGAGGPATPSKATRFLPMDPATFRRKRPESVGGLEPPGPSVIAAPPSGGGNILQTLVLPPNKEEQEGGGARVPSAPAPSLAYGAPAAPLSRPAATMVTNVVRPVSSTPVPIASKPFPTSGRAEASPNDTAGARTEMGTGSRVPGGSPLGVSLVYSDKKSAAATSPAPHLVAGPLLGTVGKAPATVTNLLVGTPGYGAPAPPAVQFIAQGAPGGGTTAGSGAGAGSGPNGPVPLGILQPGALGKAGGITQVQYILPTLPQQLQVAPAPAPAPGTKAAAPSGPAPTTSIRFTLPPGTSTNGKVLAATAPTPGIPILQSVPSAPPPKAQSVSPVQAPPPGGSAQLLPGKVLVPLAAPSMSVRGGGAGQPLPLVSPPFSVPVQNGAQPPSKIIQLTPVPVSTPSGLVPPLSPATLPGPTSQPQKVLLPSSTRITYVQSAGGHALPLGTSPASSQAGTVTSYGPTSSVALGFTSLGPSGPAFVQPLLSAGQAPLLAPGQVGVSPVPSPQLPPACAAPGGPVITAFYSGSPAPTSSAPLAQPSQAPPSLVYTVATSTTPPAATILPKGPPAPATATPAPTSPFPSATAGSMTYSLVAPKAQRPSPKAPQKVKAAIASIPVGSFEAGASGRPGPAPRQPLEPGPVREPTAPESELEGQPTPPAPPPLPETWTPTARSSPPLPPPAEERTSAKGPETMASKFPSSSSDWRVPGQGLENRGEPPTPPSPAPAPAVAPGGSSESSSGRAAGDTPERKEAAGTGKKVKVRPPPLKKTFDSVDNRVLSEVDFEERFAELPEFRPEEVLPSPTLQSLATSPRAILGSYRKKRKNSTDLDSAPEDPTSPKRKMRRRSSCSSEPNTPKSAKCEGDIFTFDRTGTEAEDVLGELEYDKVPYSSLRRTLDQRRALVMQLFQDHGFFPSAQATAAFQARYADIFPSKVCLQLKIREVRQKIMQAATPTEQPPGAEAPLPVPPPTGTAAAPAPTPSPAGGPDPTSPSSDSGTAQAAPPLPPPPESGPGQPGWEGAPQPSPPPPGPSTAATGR

B2: endogenous PJA1 in HEK293 cells (enzyme, UniProt Q8NG27 1-643)
chain: MGQESSKPVWPNPTGGYQSNTGRRYGRRHAYVSFRPPTSQRERIASQRKTNSEVPMHRSAPSQTTKRSRSPFSTTRRSWDDSESSGTNLNIDNEDYSRYPPREYRASGSRRGMAYGHIDSYGADDSEEEGAGPVERPPVRGKTGKFKDDKLYDPEKGARSLAGPPPHFSSFSRDVREERDKLDPVPAARCSASRADFLPQSSVASQSSSEGKLATKGDSSERERREQNLPARPSRAPVSICGGGENTSKSAEEPVVRPKIRNLASPNCVKPKIFFDTDDDDDMPHSTSRWRDTANDNEGHSDGLARRGRGESSSGYPEPKYPEDKREARSDQVKPEKVPRRRRTMADPDFWTHSDDYYKYCDEDSDSDKEWIAALRRKYRSREQTLSSSGESWETLPGKEEREPPQAKVSASTGTSPGPGASASAGAGAGASAGSNGSNYLEEVREPSLQEEQASLEEGEIPWLQYHENDSSSEGDNDSGHELMQPGVFMLDGNNNLEDDSSVSEDLEVDWSLFDGFADGLGVAEAISYVDPQFLTYMALEERLAQAMETALAHLESLAVDVEVANPPASKESIDALPEILVTEDHGAVGQEMCCPICCSEYVKGEVATELPCHHYFHKPCVSIWLQKSGTCPVCRCMFPPPL
binding [2]: binds

B4: endogenous PJA1 in normal human astrocytes (NHA) (enzyme, UniProt Q8NG27 1-643)
chain: B2 chain
binding [5]: binds

Second part, the binder after the results:

binding [1]: binds
B1: PJA1 protein (Supplementary Figure 5J) (enzyme, UniProt Q8NG27 1-643)
chain: B2 chain

binding [3]: binds
binding [4]: binds
B3: PJA1 in transfected HEK293 cells (Fig. 5s) (enzyme, UniProt Q8NG27 1-643)
chain: B2 chain

From paper PMC6368580
